From the supplement of paper PMC8728848
The other results are listed elsewhere or left out.

Legend:
Experiment in all cases: glycan array binding signal (z-score within array); higher = stronger binding
Settings in all cases: glycan notation: IUPAC condensed, linker removed
[1] = target: Neu5Ac(a2-3)Gal(b1-4)GlcNAc6S
Outline: (§1)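 Glycan array binding is given as a within-array Z-score, which can be read as non-binding when negative. The arrays, 3228 of them, came from the Consortium for Functional Glycomics database and were retained only where the protein sequence was available. Z-scores were averaged across arrays of the same protein sequence at different concentrations or buffers and across linkers.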

[2] = target: Neu5Ac(a2-3)Gal(b1-4)[Fuc(a1-3)]GlcNAc
Outline: as §1

[3] = target: Neu5Ac(a2-3)Gal(b1-4)[Fuc(a1-3)]GlcNAc(b1-2)Man
Outline: as §1

[4] = target: Neu5Ac(a2-3)Gal(b1-4)[Fuc(a1-3)]GlcNAc(b1-3)Gal
Outline: as §1

[5] = target: Neu5Ac(a2-3)Gal(b1-4)[Fuc(a1-3)]GlcNAc(b1-3)Gal(b1-4)GlcNAc
Outline: as §1

[6] = target: Neu5Ac(a2-3)Gal(b1-4)[Fuc(a1-3)]GlcNAc(b1-3)Gal(b1-4)[Fuc(a1-3)]GlcNAc(b1-3)Gal(b1-4)[Fuc(a1-3)]GlcNAc
Outline: as §1

[7] = target: Neu5Ac(a2-3)Gal(b1-4)[Fuc(a1-3)]GlcNAc(b1-3)GalNAc
Outline: as §1

[8] = target: Neu5Ac(a2-3)Gal(b1-4)[Fuc(a1-3)]GlcNAc(b1-6)[Gal(b1-3)]GalNAc
Outline: as §1

[9] = target: Neu5Ac(a2-3)Gal(b1-4)[Fuc(a1-3)]GlcNAc(b1-6)[Neu5Ac(a2-3)Gal(b1-3)]GalNAc
Outline: as §1

[10] = target: Neu5Ac(a2-3)Gal(b1-4)[Fuc(a1-3)]GlcNAc6S
Outline: as §1

[11] = target: Neu5Ac(a2-3)Gal6S(b1-4)GlcNAc
Outline: as §1

[12] = target: Neu5Ac(a2-3)Gal6S(b1-4)[Fuc(a1-3)]GlcNAc
Outline: as §1

[13] = target: Neu5Ac(a2-3)GalNAc
Outline: as §1

[14] = target: Neu5Ac(a2-3)GalNAc(b1-4)GlcNAc
Outline: as §1

[15] = target: Neu5Ac(a2-3)[GalNAc(b1-4)]Gal(b1-4)Glc
Outline: as §1

[16] = target: Neu5Ac(a2-3)[GalNAc(b1-4)]Gal(b1-4)GlcNAc
Outline: as §1

[17] = target: Neu5Ac(a2-3)[GalNAc(b1-4)]Gal(b1-4)GlcNAc(b1-3)GalNAc
Outline: as §1

[18] = target: Neu5Ac(a2-3)[Neu5Ac(a2-6)]GalNAc
Outline: as §1

[19] = target: Neu5Ac(a2-6)Gal
Outline: as §1

[20] = target: Neu5Ac(a2-6)Gal(b1-3)GlcNAc(b1-3)[Gal(b1-4)GlcNAc(b1-6)]Gal(b1-4)Glc
Outline: as §1

[21] = target: Neu5Ac(a2-6)Gal(b1-4)Glc
Outline: as §1

[22] = target: Neu5Ac(a2-6)Gal(b1-4)GlcNAc
Outline: as §1

[23] = target: Neu5Ac(a2-6)Gal(b1-4)GlcNAc(b1-2)Man
Outline: as §1

[24] = target: Neu5Ac(a2-6)Gal(b1-4)GlcNAc(b1-2)Man(a1-3)Man(b1-4)GlcNAc(b1-4)GlcNAc
Outline: as §1

[25] = target: Neu5Ac(a2-6)Gal(b1-4)GlcNAc(b1-2)Man(a1-3)[Gal(b1-4)GlcNAc(b1-2)Man(a1-6)]Man(b1-4)GlcNAc(b1-4)GlcNAc
Outline: as §1

[26] = target: Neu5Ac(a2-6)Gal(b1-4)GlcNAc(b1-2)Man(a1-3)[GlcNAc(b1-2)Man(a1-6)]Man(b1-4)GlcNAc(b1-4)GlcNAc
Outline: as §1

[27] = target: Neu5Ac(a2-6)Gal(b1-4)GlcNAc(b1-2)Man(a1-3)[GlcNAc(b1-4)][Neu5Ac(a2-6)Gal(b1-4)GlcNAc(b1-2)Man(a1-6)]Man(b1-4)GlcNAc(b1-4)GlcNAc
Outline: as §1

[28] = target: Neu5Ac(a2-6)Gal(b1-4)GlcNAc(b1-2)Man(a1-3)[Man(a1-6)]Man(b1-4)GlcNAc(b1-4)GlcNAc
Outline: as §1

[29] = target: Neu5Ac(a2-6)Gal(b1-4)GlcNAc(b1-2)Man(a1-3)[Neu5Ac(a2-3)Gal(b1-4)GlcNAc(b1-2)Man(a1-6)]Man(b1-4)GlcNAc(b1-4)GlcNAc
Outline: as §1

[30] = target: Neu5Ac(a2-6)Gal(b1-4)GlcNAc(b1-2)Man(a1-3)[Neu5Ac(a2-6)Gal(b1-4)GlcNAc(b1-2)Man(a1-6)]Man(b1-4)GlcNAc(b1-4)GlcNAc
Outline: as §1

[31] = target: Neu5Ac(a2-6)Gal(b1-4)GlcNAc(b1-2)Man(a1-3)[Neu5Ac(a2-6)Gal(b1-4)GlcNAc(b1-2)Man(a1-6)]Man(b1-4)GlcNAc(b1-4)[Fuc(a1-6)]GlcNAc
Outline: as §1

[32] = target: Neu5Ac(a2-6)Gal(b1-4)GlcNAc(b1-2)Man(a1-6)Man(b1-4)GlcNAc(b1-4)GlcNAc
Outline: as §1

[33] = target: Neu5Ac(a2-6)Gal(b1-4)GlcNAc(b1-2)Man(a1-6)[Gal(b1-4)GlcNAc(b1-2)Man(a1-3)]Man(b1-4)GlcNAc(b1-4)GlcNAc
Outline: as §1

[34] = target: Neu5Ac(a2-6)Gal(b1-4)GlcNAc(b1-2)Man(a1-6)[GlcNAc(b1-2)Man(a1-3)]Man(b1-4)GlcNAc(b1-4)GlcNAc
Outline: as §1

[35] = target: Neu5Ac(a2-6)Gal(b1-4)GlcNAc(b1-2)Man(a1-6)[Man(a1-3)]Man(b1-4)GlcNAc(b1-4)GlcNAc
Outline: as §1

[36] = target: Neu5Ac(a2-6)Gal(b1-4)GlcNAc(b1-2)[Neu5Ac(a2-6)Gal(b1-4)GlcNAc(b1-4)]Man(a1-3)[GlcNAc(b1-4)][Neu5Ac(a2-6)Gal(b1-4)GlcNAc(b1-2)[Neu5Ac(a2-6)Gal(b1-4)GlcNAc(b1-6)]Man(a1-6)]Man(b1-4)GlcNAc(b1-4)GlcNAc
Outline: as §1

[37] = target: Neu5Ac(a2-6)Gal(b1-4)GlcNAc(b1-2)[Neu5Ac(a2-6)Gal(b1-4)GlcNAc(b1-4)]Man(a1-3)[GlcNAc(b1-4)][Neu5Ac(a2-6)Gal(b1-4)GlcNAc(b1-4)Man(a1-6)]Man(b1-4)GlcNAc(b1-4)GlcNAc
Outline: as §1

[38] = target: Neu5Ac(a2-6)Gal(b1-4)GlcNAc(b1-2)[Neu5Ac(a2-6)Gal(b1-4)GlcNAc(b1-6)]Man(a1-6)[Neu5Ac(a2-6)Gal(b1-4)GlcNAc(b1-2)Man(a1-3)][GlcNAc(b1-4)]Man(b1-4)GlcNAc(b1-4)GlcNAc
Outline: as §1

[39] = target: Neu5Ac(a2-6)Gal(b1-4)GlcNAc(b1-3)Gal(b1-3)GlcNAc
Outline: as §1

[40] = target: Neu5Ac(a2-6)Gal(b1-4)GlcNAc(b1-3)Gal(b1-4)GlcNAc
Outline: as §1

[41] = target: Neu5Ac(a2-6)Gal(b1-4)GlcNAc(b1-3)Gal(b1-4)GlcNAc(b1-2)Man(a1-3)[Neu5Ac(a2-6)Gal(b1-4)GlcNAc(b1-3)Gal(b1-4)GlcNAc(b1-2)Man(a1-6)]GalNAc
Outline: as §1

[42] = target: Neu5Ac(a2-6)Gal(b1-4)GlcNAc(b1-3)Gal(b1-4)GlcNAc(b1-3)Gal(b1-4)GlcNAc
Outline: as §1

[43] = target: Neu5Ac(a2-6)Gal(b1-4)GlcNAc(b1-3)Gal(b1-4)GlcNAc(b1-3)Gal(b1-4)GlcNAc(b1-2)Man(a1-3)[Neu5Ac(a2-6)Gal(b1-4)GlcNAc(b1-3)Gal(b1-4)GlcNAc(b1-3)Gal(b1-4)GlcNAc(b1-2)Man(a1-6)]GalNAc
Outline: as §1

[44] = target: Neu5Ac(a2-6)Gal(b1-4)GlcNAc(b1-3)Gal(b1-4)GlcNAc(b1-3)GalNAc
Outline: as §1

[45] = target: Neu5Ac(a2-6)Gal(b1-4)GlcNAc(b1-3)Gal(b1-4)GlcNAc(b1-3)[Neu5Ac(a2-6)Gal(b1-4)GlcNAc(b1-3)Gal(b1-4)GlcNAc(b1-6)]GalNAc
Outline: as §1

B1: Endo180d1-D4 (Homo sapiens), Q9UBG0 (protein)
chain: MGPGRPAPAPWPRHLLRCVLLLGCLHLGRPGAPGDAALPEPNVFLIFSHGLQGCLEAQGGQVRVTPACNTSLPAQRWKWVSRNRLFNLGTMQCLGTGWPGTNTTASLGMYECDREALNLRWHCRTLGDQLSLLLGARTSNISKPGTLERGDQTRSGQWRIYGSEEDLCALPYHEVYTIQGNSHGKPCTIPFKYDNQWFHGCTSTGREDGHLWCATTQDYGKDERWGFCPIKSNDCETFWDKDQLTDSCYQFNFQSTLSWREAWASCEQQGADLLSITEIHEQTYINGLLTGYSSTLWIGLNDLDTSGGWQWSDNSPLKYLNWESDQPDNPSEENCGVIRTESSGGWQNRDCSIALPYVCKKKPNATAEPTPPDRWANVKVECEPSWQPFQGHCYRLQAEKRSWQESKKACLRGGGDLVSIHSMAELEFITKQIKQEVEELWIGLNDLKLQMNFEWSDGSLVSFTHWHPFEPNNFRDSLEDCVTIWGPEGRWNDSPCNQSLPSICKKAGQLSQGAAEEDHGCRKGWTWHSPSCYWLGEDQVTYSEARRLCTDHGSQLVTITNRFEQAFVSSLIYNWEGEYFWTALQDLNSTGSFFWLSGDEVMYTHWNRDQPGYSRGGCVALATGSAMGLWEVKNCTSFRARYICRQSLGTPVTPELPGPDPTPSLTGSCPQGWASDTKLRYCYKVFSSERLQDKKSWVQAQGACQELGAQLLSLASYEEEHFVANMLNKIFGESEPEIHEQHWFWIGLNRRDPRGGQSWRWSDGVGFSYHNFDRSRHDDDDIRGCAVLDLASLQWVAMQCDTQLDWICKIPRGTDVREPDDSPQGRREWLRFQEAEYKFFEHHSTWAQAQRICTWFQAELTSVHSQAELDFLSHNLQKFSRAQEQHWWIGLHTSESDGRFRWTDGSIINFISWAPGKPRPVGKDKKCVYMTASREDWGDQRCLTALPYICKRSNVTKETQPPDLPTTALGGCPSDWIQFLNKCFQVQGQEPQSRVKWSEAQFSCEQQEAQLVTITNPLEQAFITASLPNVTFDLWIGLHASQRDFQWVEQEPLMYANWAPGEPSGPSPAPSGNKPTSCAVVLHSPSAHFTGRWDDRSCTEETHGFICQKGTDPSLSPSPAALPPAPGTELSYLNGTFRLLQKPLRWHDALLLCESHNASLAYVPDPYTQAFLTQAARGLRTPLWIGLAGEEGSRRYSWVSEEPLNYVGWQDGEPQQPGGCTYVDVDGAWRTTSCDTKLQGAVCGVSSGPPPPRRISYHGSCPQGLADSAWIPFREHCYSFHMELLLGHKEARQRCQRAGGAVLSILDEMENVFVWEHLQSYEGQSRGAWLGMNFNPKGGTLVWQDNTAVNYSNWGPPGLGPSMLSHNSCYWIQSNSGLWRPGACTNITMGVVCKLPRAEQSSFSPSALPENPAALVVVLMAVLLLLALLTAALILYRRRQSIERGAFEGARYSRSSSSPTEATEKNILVSDMEMNEQQE
- glycan array binding signal (z-score) [1]: -0.397
- glycan array binding signal (z-score) [2]: -0.083
- glycan array binding signal (z-score) [3]: 0.902
- glycan array binding signal (z-score) [4]: -0.471
- glycan array binding signal (z-score) [5]: 0.016
- glycan array binding signal (z-score) [6]: -0.132
- glycan array binding signal (z-score) [7]: 1.09
- glycan array binding signal (z-score) [8]: 0.26
- glycan array binding signal (z-score) [9]: 0.407
- glycan array binding signal (z-score) [10]: -0.024
- glycan array binding signal (z-score) [11]: 1.4
- glycan array binding signal (z-score) [12]: 0.74
- glycan array binding signal (z-score) [13]: -0.207
- glycan array binding signal (z-score) [14]: -0.55
- glycan array binding signal (z-score) [15]: -0.269
- glycan array binding signal (z-score) [16]: -0.248
- glycan array binding signal (z-score) [17]: -0.661
- glycan array binding signal (z-score) [18]: -0.29
- glycan array binding signal (z-score) [19]: 0.241
- glycan array binding signal (z-score) [20]: -2.06
- glycan array binding signal (z-score) [21]: -0.339
- glycan array binding signal (z-score) [22]: -0.526
- glycan array binding signal (z-score) [23]: 0.442
- glycan array binding signal (z-score) [24]: 0.283
- glycan array binding signal (z-score) [25]: -0.686
- glycan array binding signal (z-score) [26]: 3.38
- glycan array binding signal (z-score) [27]: -1.51
- glycan array binding signal (z-score) [28]: 0.154
- glycan array binding signal (z-score) [29]: 0.363
- glycan array binding signal (z-score) [30]: -0.074
- glycan array binding signal (z-score) [31]: 0.843
- glycan array binding signal (z-score) [32]: 0.717
- glycan array binding signal (z-score) [33]: -1.57
- glycan array binding signal (z-score) [34]: -0.485
- glycan array binding signal (z-score) [35]: 0.214
- glycan array binding signal (z-score) [36]: -0.277
- glycan array binding signal (z-score) [37]: -0.856
- glycan array binding signal (z-score) [38]: 2.92
- glycan array binding signal (z-score) [39]: -0.166
- glycan array binding signal (z-score) [40]: -0.535
- glycan array binding signal (z-score) [41]: 0.118
- glycan array binding signal (z-score) [42]: 0.715
- glycan array binding signal (z-score) [43]: 1.12
- glycan array binding signal (z-score) [44]: -1.45
- glycan array binding signal (z-score) [45]: -0.406
